Test [1] deals with human PD-L1 protein (hybridoma screening) (human) (UniProt Q9NZQ7). The test is described as follows: ELISA, hybridoma screening. (An ELISA detects its analyte on a solid surface through an enzyme-linked reagent.)
The target in test [2] is human PD-L1 on cells (human) (UniProt Q9NZQ7). In words: FACS on ES-2 cells, hybridoma screening.
In a further test the target is T1, rhPD-L1-his protein (monkey, UniProt G7PSE7 19-238).
T1 construct: Bought protein; also called monkey PD-L1 protein; Sino Biological #90251-C08H; not shown: C-terminal His tag
The test is described as follows: ELISA, rhPD-L1-his coated.

By UniProt entry, the sequences of proteins in these tests, tags left out. Where a name states a change or a piece, a line headed by the entry shows the natural chain unless it says otherwise. Residues count along the entry.
UniProt Q9NZQ7: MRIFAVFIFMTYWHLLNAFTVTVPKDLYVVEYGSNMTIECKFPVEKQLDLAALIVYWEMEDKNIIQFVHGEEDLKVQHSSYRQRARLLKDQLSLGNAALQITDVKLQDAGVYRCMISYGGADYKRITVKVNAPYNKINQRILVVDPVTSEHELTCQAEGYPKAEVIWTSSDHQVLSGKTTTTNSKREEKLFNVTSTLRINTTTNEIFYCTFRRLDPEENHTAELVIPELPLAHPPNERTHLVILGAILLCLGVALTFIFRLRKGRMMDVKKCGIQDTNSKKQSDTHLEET
human PD-L1 on cells: residues 19-290 of Q9NZQ7
human PD-L1 protein (hybridoma screening): residues 19-239 of Q9NZQ7

No constants are given. Whether binding was seen depends on the method and setting. Some binding calls cover weakened binding; strength is not graded here.

B1: 36C06-D8 (antibody, V domains shown)
VH: QVQLQQSGAELVKPGASVKLSCKASGYAFTGYTIHWVKQRSGLGLEWLGWFYPGSGTLKYNEKFKDKATLTADKSSSTVYLELSRLTSEDSAVYFCARHGTGTLMAMDYWGQGTSVTVSS
VL: DVVVTQTPLSLPVSFGDQVSISCRSSQSLANSYGNTYLSWYLHKPGQSPQLLIYGISNRFSGVPDRFSGSGSGTDFTLKISTIKPEDLGMYYCLQGTHQPPTFGGGTKLEIK
notes: also called hybridoma 36C06/D8; mouse monoclonal antibody against human PD-L1
For the molecule B1, the binding entry in test [1] and in test [2] was “binds” in each case.

B2: chimeric antibody 900289 (antibody, V domains shown)
VH: QVQLQQSGAELVKPGASVKLSCKASGYAFTGYTIHWVKQRSGLGLEWLGWFYPGSGTLKYNEKFKDKATLTADKSSSTVYLELSRLTSEDSAVYFCARHGTGTLMAMDYWGQGTSVTVSS
VL: DVVVTQTPLSLPVSFGDQVSISCRSSQSLANSYGNTYLSWYLHKPGQSPQLLIYGISNRFSGVPDRFSGSGSGTDFTLKISTIKPEDLGMYYCLQGTHQPPTFGGGTKLEIK
notes: Expressed in CHO-S cells; also called chimeric IgG1-kappa antibody; human-mouse chimeric antibody
As to B2, the binding entry in the test with rhPD-L1-his protein is “binds”.

B3: humanized antibody 900339 (antibody, V domains shown)
VH: QVQLVQSGAEVKKPGASVKVSCKASGYAFTGYTIHWVRQAPGQRLEWMGWFYPGSGTLKYSEKFQGRVTITRDKSLSTAYMELSSLRSEDTAVYYCARHGTGTLMAMDYWGQGTLVTVSS
VL: DVVMTQTPLSLSVTPGQPASISCKSSQSLANSYGNTYLSWYLHKPGQSPQLLIYGISNRFSGVPDRFSGSGSGTDFTLKISRVEAEDVGVYYCLQGTHQPPTFGQGTKLEIK
notes: Humanized from the chimeric antibody; Expressed in CHO-S cells; also called humanized PD-L1 monoclonal antibody
B3: in the test with rhPD-L1-his protein, the binding result was “binds”.

These data come from patent US20220089741A1 (HUABO BIOPHARM SHANGHAI, published 2022).
